According to US20240156972A1 (priority 2021, published 2024):

Assay: general procedure: Fmoc solid-phase peptide synthesis; Rink amide resin; DIC / OxymaPure
Conditions: for step yield: purification step; for isolated yield: whole synthesis, scale of the general procedure 0.1 mmol

| Substance | step yield [%] | isolated yield [%] |
| --- | --- | --- |
| H—Ac—(N3—K)-LRMADPNRFRGRDLY-NH2 | 22.5 |  |
| H-(Aryl-SO2F)—(N3—K)-LRMADPNRFRGRDL-NH2 | 13 |  |
| H—Ac—(Y—OSO2F)—(N3—K)-LRMADPNRFRGRDL-NH2 |  | 34.0 |
| H—Ac—(N3—K)-LRMADPNRFRGRDL-(Y—OSO2F)—NH2 |  | 44 |
| H—Ac—(N3—K)-LRMADPNR-(Y—OSO2F)-RGRDL-NHz (Ac, azido-Lys, fluorosulfate Tyr, C-amide) |  | 20.9 |
